Measured values: PMC4234486
Results are given in words; binding and its absence hold for the method and conditions named. In cells and extracts the contact can be indirect. Some entries that bind do so weakly or less than the wild type. Where a sequence is shown, tags or fusion partners need not be part of it.

Target: T1, Cip2-TAP (fission yeast (S. pombe)) (UniProt Q09868)
T1 sequence: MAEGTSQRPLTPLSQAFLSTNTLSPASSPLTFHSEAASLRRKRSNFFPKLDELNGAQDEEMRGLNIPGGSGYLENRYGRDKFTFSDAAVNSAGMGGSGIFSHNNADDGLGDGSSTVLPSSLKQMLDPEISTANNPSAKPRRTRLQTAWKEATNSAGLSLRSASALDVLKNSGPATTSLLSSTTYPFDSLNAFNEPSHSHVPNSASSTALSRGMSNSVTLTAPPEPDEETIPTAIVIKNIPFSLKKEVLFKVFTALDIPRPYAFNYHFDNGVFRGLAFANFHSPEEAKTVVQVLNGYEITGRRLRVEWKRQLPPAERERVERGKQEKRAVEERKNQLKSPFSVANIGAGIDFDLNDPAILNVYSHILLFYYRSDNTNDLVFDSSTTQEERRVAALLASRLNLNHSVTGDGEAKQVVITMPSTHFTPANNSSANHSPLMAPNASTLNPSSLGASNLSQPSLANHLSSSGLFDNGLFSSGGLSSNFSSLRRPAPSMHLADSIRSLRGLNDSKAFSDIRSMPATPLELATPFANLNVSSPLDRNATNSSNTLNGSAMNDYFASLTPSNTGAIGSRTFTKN
Test: co-IP; fission yeast cell extracts; TAP-tagged protein immunoprecipitated with monoclonal antibodies against protein A; Western blot with peroxidase anti-peroxidase complexes (TAP) and anti-myc; also after treating 250 ul of extract with 200 units of RNase I for 15 minutes at room temperature (interaction kept)

B1: Sty1-myc (protein, UniProt Q09892 1-349)
chain: MAEFIRTQIFGTCFEITTRYSDLQPIGMGAFGLVCSAKDQLTGMNVAVKKIMKPFSTPVLAKRTYRELKLLKHLRHENIISLSDIFISPFEDIYFVTELLGTDLHRLLTSRPLETQFIQYFLYQILRGLKFVHSAGVIHRDLKPSNILINENCDLKICDFGLARIQDPQMTGYVSTRYYRAPEIMLTWQKYNVEVDIWSAGCIFAEMIEGKPLFPGRDHVNQFSIITELLGTPPMEVIETICSKNTLRFVQSLPQKEKVPFAEKFKNADPDAIDLLEKMLVFDPRKRISAADALAHNYLAPYHDPTDEPVADEVFDWSFQDNDLPVETWKVMMYSEVLSFHNMDNELQS
binding: binds
